Some ranges recur; such a range may be that of the whole group of compounds.
Tested on: MDA-MB-468 (TNBC) cells
Assay: Cell surface HLA-bound peptidyl-citrullinome by mass spectrometry, MDA-MB-468
Format: cell-based, human
Settings: mild acid elution, LC-MS/MS, FDR=0.01; class by peptide length

Row | Substance | Cell surface MHC binding citrullinated peptide identified in MDA-MB-468 (TNBC)
1 | NVVKTGR*VMLGETNPAD (NVVKTGRVMLGETNPAD; citrulline at R7; MOD_RES (7)..(7) Citrullinated Arginine) [SEQ ID NO: 72, NME2 peptide, R7(Cit.)] | MHC-II (from 12 to 34 as MHC-IU binding peptides)
2 | NVVKTGR*VMLGETNPADSKPGTIR*GD (NVVKTGRVMLGETNPADSKPGTIRGD; citrulline at R7 and R24; MOD_RES (7)..(7) Citrullinated Arginine; MOD_RES (24)..(24) Citrullinated Arginine) [SEQ ID NO: 69, NME2 peptide, R7(Cit.); R24(Cit.)] | MHC-II (from 12 to 34 as MHC-IU binding peptides)
3 | NVVKTGR*VMLGETNPADSKPGTIRGDF (NVVKTGRVMLGETNPADSKPGTIRGDF; citrulline at R7; MOD_RES (7)..(7) Citrullinated Arginine) [SEQ ID NO: 70, NME2 peptide, R7(Cit.)] | MHC-II (from 12 to 34 as MHC-IU binding peptides)
4 | PGHLQEGFGCVVTNR*F (PGHLQEGFGCVVTNRF; citrulline at R15; MOD_RES (15)..(15) Citrullinated Arginine) [SEQ ID NO: 117, SERBP1 peptide, R15(Cit.)] | MHC-II (from 12 to 34 as MHC-IU binding peptides)
5 | PGHLQEGFGCVVTNR*FDQL (PGHLQEGFGCVVTNRFDQL; citrulline at R15; MOD_RES (15)..(15) Citrullinated Arginine) [SEQ ID NO: 118, SERBP1 peptide, R15(Cit.)] | MHC-II (from 12 to 34 as MHC-IU binding peptides)
6 | PKRKVSSAEGAAKEEPKRR*SARLS (PKRKVSSAEGAAKEEPKRRSARLS; citrulline at R19; MOD_RES (19)..(19) Citrullinated Arginine) [SEQ ID NO: 57, HMGN1 peptide, R19(Cit.)] | MHC-II (from 12 to 34 as MHC-IU binding peptides)
7 | QFGEEDADPGAMSR*PFGVAL (QFGEEDADPGAMSRPFGVAL; citrulline at R14; MOD_RES (14)..(14) Citrullinated Arginine) [SEQ ID NO: 106, PSMA5 peptide, R14(Cit.)] | MHC-II (from 12 to 34 as MHC-IU binding peptides)
8 | QLQEGKNVIGLQMGTNR*GASQAGMTGYGMPRQIL (QLQEGKNVIGLQMGTNRGASQAGMTGYGMPRQIL; citrulline at R17; MOD_RES (17)..(17) Citrullinated Arginine) [SEQ ID NO: 127, TAGLN2 peptide, R17(Cit.)] | MHC-II (from 12 to 34 as MHC-IU binding peptides)
9 | QVVGR*AGTGVDNVDL (QVVGRAGTGVDNVDL; citrulline at R5; MOD_RES (5)..(5) Citrullinated Arginine) [SEQ ID NO: 85, PHGDH peptide, R5(Cit.)] | MHC-II (from 12 to 34 as MHC-IU binding peptides)
10 | QWIPPPDKR*RNSELFQ (QWIPPPDKRRNSELFQ; citrulline at R9; MOD_RES (9)..(9) Citrullinated Arginine) [SEQ ID NO: 62, KCTD8 peptide, R9(Cit.)] | MHC-II (from 12 to 34 as MHC-IU binding peptides)
11 | R*QTVAVGVIKAVDKKAAGAGKVTKSAQKAQKAK (RQTVAVGVIKAVDKKAAGAGKVTKSAQKAQKAK; citrulline at R1; MOD_RES (1)..(1) Citrullinated Arginine) [SEQ ID NO: 38, EEF1A1 peptide, RI(Cit.)] | MHC-II (from 12 to 34 as MHC-IU binding peptides)
12 | R*R*LSEDYGVLKTDEGIAYRG (RRLSEDYGVLKTDEGIAYRG; citrulline at R1 and R2; MOD_RES (1)..(2) Citrullinated Arginine) [SEQ ID NO: 105, PRDX2 peptide, R1(Cit.); R2(Cit.)] | MHC-II (from 12 to 34 as MHC-IU binding peptides)
13 | R*TKSTGGAPTENVTVTKTDKTL (RTKSTGGAPTFNVTVTKTDKTL; citrulline at R1; MOD_RES (1)..(1) Citrullinated Arginine) [SEQ ID NO: 80, PFN1 peptide, R1(Cit.)] | MHC-II (from 12 to 34 as MHC-IU binding peptides)
14 | R*VDQIIMAKPAGGPKPPSGKKDWDDDQND (RVDQIIMAKPAGGPKPPSGKKDWDDDQND; citrulline at R1; MOD_RES (1)..(1) Citrullinated Arginine) [SEQ ID NO: 24, CCT8 peptide, RI(Cit.)] | MHC-II (from 12 to 34 as MHC-IU binding peptides)
15 | R*VFQSLPHENKPLTLSNYQTNKAKHDE (RVFQSLPHENKPLTLSNYQTNKAKHDE; citrulline at R1; MOD_RES (1)..(1) Citrullinated Arginine) [SEQ ID NO: 30, CSTB peptide, RI(Cit.)] | MHC-II (from 12 to 34 as MHC-IU binding peptides)
16 | RLVPFDHAESTYGLYR*THL (RLVPFDHAESTYGLYRTHL; citrulline at R16; MOD_RES (16)..(16) Citrullinated Arginine) [SEQ ID NO: 84, PGLS peptide, R16(Cit.)] | MHC-II (from 12 to 34 as MHC-IU binding peptides)

Row | Substance | Cell surface MHC binding citrullinated peptide identified in MDA-MB-468 (TNBC)
17 | SGLKSLQTVSGR*QQL (SGLKSLQTVSGRQQL; citrulline at R12; MOD_RES (12)..(12) Citrullinated Arginine) [SEQ ID NO: 2, API5 peptide, R12(Cit.)] | MHC-II (from 12 to 34 as MHC-IU binding peptides)
18 | SIQGQHTISPLDLAKLNQVAR*QQSHF (SIQGQHTISPLDLAKLNQVARQQSHF; citrulline at R21; MOD_RES (21)..(21) Citrullinated Arginine) [SEQ ID NO: 77, PCBP1 peptide, R21(Cit.)] | MHC-II (from 12 to 34 as MHC-IU binding peptides)
19 | SR*AQLGGPEAAKSDETAAK (SRAQLGGPEAAKSDETAAK; citrulline at R2; MOD_RES (2)..(2) Citrullinated Arginine) [SEQ ID NO: 59, HSPB1 peptide, R2(Cit.)] | MHC-II (from 12 to 34 as MHC-IU binding peptides)
20 | TNRGASQAGMTGYGMPR*QIL (TNRGASQAGMTGYGMPRQIL; citrulline at R17; MOD_RES (17)..(17) Citrullinated Arginine) [SEQ ID NO: 126, TAGLN2 peptide, R17(Cit.)] | MHC-II (from 12 to 34 as MHC-IU binding peptides)
21 | VIGLQMGTNR*GASQAGMTGYGMPRQIL (VIGLQMGTNRGASQAGMTGYGMPRQIL; citrulline at R10; oxidized M17; MOD_RES (10)..(10) Citrullinated Arginine; MOD_RES (17)..(17) Oxidized Methionine) [SEQ ID NO: 128, TAGLN2 peptide, R10(Cit.); M17(Oxi.)] | MHC-II (from 12 to 34 as MHC-IU binding peptides)
22 | VIGLQMGTNRGASQAGMTGYGMPR*Q (VIGLQMGTNRGASQAGMTGYGMPRQ; citrulline at R24; MOD_RES (24)..(24) Citrullinated Arginine) [SEQ ID NO: 125, TAGLN2 peptide, R24(Cit.)] | MHC-II (from 12 to 34 as MHC-IU binding peptides)
23 | VKR*QFMNKSLSGPGQ (VKRQFMNKSLSGPGQ; citrulline at R3; MOD_RES (3)..(3) Citrullinated Arginine) [SEQ ID NO: 4, ARPC3 peptide, R3(Cit.)] | MHC-II (from 12 to 34 as MHC-IU binding peptides)
24 | VNTNVPR*ASVPDGELSEL [SEQ ID NO: 66] | MHC-II (from 12 to 34 as MHC-IU binding peptides)
25 | VNTPKKQGGLGPMNIPLVSDPKR*TIAQDYG (VNTPKKQGGLGPMNIPLVSDPKRTIAQDYG; citrulline at R23; MOD_RES (23)..(23) Citrullinated Arginine) [SEQ ID NO: 103, PRDX1 peptide, R23(Cit.)] | MHC-II (from 12 to 34 as MHC-IU binding peptides)
26 | WAALENKSKQR*TNPSPTNPFSSDLQK (WAALENKSKQRTNPSPTNPFSSDLQK; citrulline at R11; MOD_RES (11)..(11) Citrullinated Arginine) [SEQ ID NO: 73, NUMB peptide, R11(Cit.)] | MHC-II (from 12 to 34 as MHC-IU binding peptides)
27 | WAALENKSKQR*TNPSPTNPFSSDLQKT (WAALENKSKQRTNPSPTNPFSSDLQKT; citrulline at R11; MOD_RES (11)..(11) Citrullinated Arginine) [SEQ ID NO: 74, NUMB peptide, RII(Cit.)] | MHC-II (from 12 to 34 as MHC-IU binding peptides)
28 | WDR*NNPEPWNKLGPNDQYK (WDRNNPEPWNKLGPNDQYK; citrulline at R3; MOD_RES (3)..(3) Citrullinated Arginine) [SEQ ID NO: 68, NDUFA4 peptide, R3(Cit.)] | MHC-II (from 12 to 34 as MHC-IU binding peptides)
29 | WKVTR*KDGNASGTTL (WKVTRKDGNASGTTL; citrulline at R5; MOD_RES (5)..(5) Citrullinated Arginine) [SEQ ID NO: 35, EEF1A1 peptide, R5(Cit.)] | MHC-II (from 12 to 34 as MHC-IU binding peptides)
30 | WKVTR*KDGNASGTTLL (WKVTRKDGNASGTTLL; citrulline at R5; MOD_RES (5)..(5) Citrullinated Arginine) [SEQ ID NO: 34, EEF1A1 peptide, R5(Cit.)] | MHC-II (from 12 to 34 as MHC-IU binding peptides)
31 | WKVTR*KDGNASGTTLLE (WKVTRKDGNASGTTLLE; citrulline at R5; MOD_RES (5)..(5) Citrullinated Arginine) [SEQ ID NO: 36, EEF1A1 peptide, R5(Cit.)] | MHC-II (from 12 to 34 as MHC-IU binding peptides)

Source: patent US20240201191A1, “CITRULLINATED PROTEINS AS BIOMARKERS AND THERAPY TARGETS FOR CANCER” (BOARD OF REGENTS, THE UNIVERSITY OF TEXAS SYSTEM, priority 2022, published 2024)
